Measurements: PubChem BioAssay AID493014 (National Center for Advancing Translational Sciences (NCATS), 2011)
The list shows a part of the results. These are further read-outs of the screen, such as a control signal, another cell line or another target. No call is given for them. Compounds called inactive in the main read-out are mostly missing here. Words in brackets tell the shape of the fitted curve; partial curves, single points and poor fits give uncertain potencies.

Experiment: qHTS Assay to Find Inhibitors of Chronic Active B-Cell Receptor Signaling
Details: ABC-DLBCL IkBa-CBG/CBR reporter, luminescence ratio (green luciferase fused to IkBa over red control in TMD8 lymphoma cells), 4 h
How it was run: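 Compounds up to 46 uM were incubated four hours with TMD8 cells whose green CBG68 luciferase is fused to IkappaBalpha; red CBR luminescence normalised the signal, and concentration-effect curves were fitted to fusion, red and ratio data.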

[1] = measured here: CBR red luminescence, cell number
[2] = measured here: IkBa-CBG green luminescence

Question: With `CC1CCc2nc(NC(=O)c3ccco3)sc2C1` (stereo not drawn) as the compound, how does the AC50 [1] read?
Answer: 10.3 µM [falling, partial curve]

Question: For `Cc1ccc(NC(=O)c2ccc(COc3ccccc3[N+](=O)[O-])o2)nc1`, which AC50 [1] is on record?
Answer: 1.46 µM [falling, full curve]

Question: With `Cc1ccc(-c2cc(C(F)F)nc(NCc3cccs3)n2)cc1` as the compound, how does the AC50 [1] read?
Answer: 18.4 µM [rising, single point]

Question: Which AC50 [1] does the source give for `COc1ccccc1-c1c(C#N)c(N)nc2c1CCc1ccccc1-2` here?
Answer: 3.66 µM [falling, single point]

Question: For `CC(C)CC(C(=O)Nc1oc(-c2ccccc2)c(-c2ccccc2)c1C#N)N1C(=O)c2ccccc2C1=O` (stereo not drawn), which AC50 [1] is on record?
Answer: 6.51 µM [falling, full curve]

Question: With `Cc1ccccc1OCC(=O)Nc1nc(-c2ccncc2)cs1` as the compound, how does the AC50 [1] read?
Answer: 14.6 µM [falling, partial curve]

Question: For `Cc1cc2nc3c(c(=O)n2[nH]1)CCCC3`, which AC50 [1] is on record?
Answer: 29.1 µM [rising, single point]

Question: Which AC50 [1] does the source give for `COc1ccc(C2=NN3C(C2)c2ccccc2OC3c2cccs2)cc1` (stereo not drawn) here?
Answer: 25.1 µM [falling, single point]

Question: With `OCC[C@@H]1C[C@@H](O)[C@H](O)[C@]2(CCc3ccccc3CO2)O1` as the compound, how does the AC50 [1] read?
Answer: 12.6 µM [rising, partial curve, poor fit]

Question: Which AC50 [1] does the source give for `O=c1c2sccc2nc(SCc2cc(=O)n3ccccc3n2)n1-c1ccc(Br)cc1` here?
Answer: 0.00517 µM [rising, full curve, poor fit]

Question: Which AC50 [1] does the source give for `O=C(NCC(c1ccco1)N1CCN(c2ccc(F)cc2)CC1)C(=O)NC1CCCCC1` (stereo not drawn) here?
Answer: 9.2 µM [falling, partial curve]

Question: With `CCOc1cc(C(c2c(C)[nH][nH]c2=O)c2c(C)[nH][nH]c2=O)cc(Cl)c1O` as the compound, how does the AC50 [1] read?
Answer: 10 µM [falling, partial curve, poor fit]

Question: For `Cc1ccccc1NC(=O)CN1CCC(NC(=O)Nc2ccccc2)CC1`, which AC50 [1] is on record?
Answer: 16.4 µM [rising, single point]

Question: With `O=S(=O)(c1ccccc1)N1N=C(c2ccc(O)cc2)CC1c1ccco1` (stereo not drawn) as the compound, how does the AC50 [1] read?
Answer: 12.6 µM [falling, partial curve, poor fit]

Question: With `COc1cc(/C=C/C(=O)OCC(=O)NC2CCCCCCC2)ccc1O` as the compound, how does the AC50 [1] read?
Answer: 1.16 µM [rising, partial curve, poor fit]

Question: Which AC50 [1] does the source give for `Cc1cccc(NC(=O)C(=O)NCCCc2ccccc2)c1` here?
Answer: 20.6 µM [falling, partial curve]

Question: With `COc1ccc(C2c3ccc4ccccc4c3Oc3ncn(CCCO)c(=N)c32)cc1OC` (stereo not drawn) as the compound, how does the AC50 [2] read?
Answer: 11.2 µM [falling, partial curve, poor fit]

Question: Which AC50 [1] does the source give for `Nc1c(-c2cccs2)cnc2c(-c3ccc(F)cc3)cnn12` here?
Answer: 0.631 µM [rising, full curve, poor fit]

Question: For `NC(=O)NC(=O)COC(=O)/C=C/c1cccc(Br)c1`, which AC50 [1] is on record?
Answer: 12.6 µM [falling, single point]

Question: With `CCOc1ccc(S(=O)(=O)Nc2ccc(C(=O)N3CCC3)cc2)cc1` as the compound, how does the AC50 [1] read?
Answer: 4.61 µM [rising, full curve, poor fit]

Question: With `O=C(NC(=S)Nc1ccc2oc(=O)ccc2c1)c1cccc(F)c1` as the compound, how does the AC50 [1] read?
Answer: 3.55 µM [rising, full curve, poor fit]

Question: For `O=C(CSc1nc(-c2ccccc2Cl)ns1)c1ccc(Cl)cc1`, which AC50 [1] is on record?
Answer: 5.8 µM [rising, partial curve, poor fit]

Question: For `CC(C)c1nc2n[nH]c(N)c2c2c1CSC(C)(C)C2`, which AC50 [1] is on record?
Answer: 18.4 µM [rising, single point]

Question: With `O=C(NCCc1ccccc1)C1CCN(S(=O)(=O)c2ccccc2)CC1` as the compound, how does the AC50 [1] read?
Answer: 32.6 µM [rising, single point]

Question: For `O=C(/C=C/c1ccccc1)Nc1cccc(C(=O)O)c1`, which AC50 [1] is on record?
Answer: 0.562 µM [falling, full curve]

Question: For `C=CCOc1ccc(CNc2nccs2)cc1OC`, which AC50 [1] is on record?
Answer: 10.3 µM [rising, partial curve]

Question: What about the AC50 [2] of the same compound?
Answer: 20.6 µM [falling, single point]

Question: For `COc1cc(OC)cc(-c2nc3ccccc3c(=O)n2OC(=O)c2ccccc2C)c1`, which AC50 [1] is on record?
Answer: 20.6 µM [falling, partial curve, poor fit]

Question: Which AC50 [1] does the source give for `CC(Cc1cccs1)NC(=O)Nc1ccc(F)cc1` (stereo not drawn) here?
Answer: 0.461 µM [rising, partial curve, poor fit]

Question: For `O=C(O)c1ccc(/C=N/NC(=O)c2ccc(F)cc2)cc1`, which AC50 [1] is on record?
Answer: 7.08 µM [falling, partial curve]

Question: For `COc1ccc(-c2nn(CCC#N)cc2C(=O)Nc2cccc(C(=O)O)c2)cc1[N+](=O)[O-]`, which AC50 [1] is on record?
Answer: 3.98 µM [falling, single point]

Question: Which AC50 [1] does the source give for `Cc1cc2cc(CCNC(=O)CC(C)(C)C)c(=O)[nH]c2cc1C` here?
Answer: 14.6 µM [rising, partial curve, poor fit]

Question: With `CC(=O)c1c(C)[nH]c(C(=O)OCC(=O)Nc2cc(C)on2)c1C` as the compound, how does the AC50 [1] read?
Answer: 6.51 µM [falling, single point]

Question: With `Cc1nnc(SCC(=O)Nc2nccs2)s1` as the compound, how does the AC50 [1] read?
Answer: 20.6 µM [falling, partial curve]

Question: What does the source list for `N#C/C(=C\C=C\c1ccccc1[N+](=O)[O-])C(=O)NC1CCCCC1`?
Answer: AC50 [1]: 7.94 µM [falling, partial curve]; AC50 [2]: 7.08 µM [falling, partial curve, poor fit]

Question: With `O=C(Cn1c2c(c(=O)n3ncnc13)CCC2)N/N=C/c1cccs1` as the compound, how does the AC50 [1] read?
Answer: 17.8 µM [rising, single point]

Question: For `O=C(c1ccc(F)cc1)N1CCCC(c2ccccc2)C1` (stereo not drawn), which AC50 [1] is on record?
Answer: 8.91 µM [rising, partial curve, poor fit]

Question: With `O=C(CSc1nccn(-c2ccc(Br)cc2)c1=O)Nc1ccccc1F` as the compound, how does the AC50 [1] read?
Answer: 2.31 µM [falling, single point]

Question: With `COCCCn1c(SCC(=O)N2CCOCC2)nc2cc(Cl)ccc2c1=O` as the compound, how does the AC50 [1] read?
Answer: 0.651 µM [falling, full curve, poor fit]

Question: For `N/C(=N\OC(=O)c1ccc2ccccc2c1)c1ccccc1Cl`, which AC50 [1] is on record?
Answer: 10 µM [falling, partial curve, poor fit]

Question: With `Clc1ccc(CNCCCSc2ncccn2)cc1` as the compound, how does the AC50 [1] read?
Answer: 1.12 µM [rising, full curve, poor fit]

Question: With `Cc1ccc(S(=O)(=O)CCC(=O)OCC(=O)NCCc2ccc(S(N)(=O)=O)cc2)cc1` as the compound, how does the AC50 [1] read?
Answer: 0.13 µM [falling, full curve, poor fit]

Question: Which AC50 [1] does the source give for `COc1cccc(C(=O)NN=C2CCCC2)c1` here?
Answer: 5.01 µM [falling, partial curve]

Question: With `CCc1cccc(NC(=S)N(CCCOC(C)C)C2CCN(C(C)=O)CC2)c1` as the compound, how does the AC50 [1] read?
Answer: 3.16 µM [rising, partial curve]

Question: With `COC(=O)c1ccc(C2C(Oc3ccccc3C)C(=O)N2CCc2ccc(OC)c(OC)c2)cc1` (stereo not drawn) as the compound, how does the AC50 [1] read?
Answer: 20 µM [falling, single point]

Question: For `O=C1/C(=C\c2ccsc2)NC(=S)N1c1ccccc1`, which AC50 [1] is on record?
Answer: 11.2 µM [falling, partial curve]

Question: Which AC50 [1] does the source give for `COc1ccc(OCC(=O)Nc2ccccc2O)cc1` here?
Answer: 0.92 µM [falling, full curve]

Question: For `CCOC(=O)c1oc2cc(O)ccc2c(=O)c1-c1ccccc1OC`, which AC50 [1] is on record?
Answer: 10 µM [falling, partial curve]

Question: What does the source list for `O=C(/C=C/Sc1ncn[nH]1)c1ccc(Cl)cc1`?
Answer: AC50 [1]: 11.2 µM [falling, partial curve]; AC50 [2]: 3.55 µM [falling, single point]

Question: For `COc1cccc(-c2ncc3ccccc3c2COC(=O)c2ccc(F)cc2)c1`, which AC50 [1] is on record?
Answer: 5.17 µM [falling, full curve]

Question: With `COc1cccc(CNC(=O)COC(=O)c2nc(Cl)c(Cl)c(Cl)c2Cl)c1` as the compound, how does the AC50 [2] read?
Answer: 29.1 µM [falling, single point]

Question: With `CCOc1cc2[nH]c(=S)n(CCN3CCCCC3CC)c(=O)c2cc1OCC` (stereo not drawn) as the compound, how does the AC50 [1] read?
Answer: 32.6 µM [falling, single point]

Question: With `O=C(Nc1ccncc1)c1cc(-c2cccc(Br)c2)nc2ccccc12` as the compound, how does the AC50 [1] read?
Answer: 16.4 µM [falling, partial curve, poor fit]

Question: For `Cc1ccc(/C=N/NC(=O)CSc2nc3ccccc3[nH]2)o1`, which AC50 [1] is on record?
Answer: 15.8 µM [falling, partial curve]

Question: For `Cc1c(CBr)[n+](=O)c2c(n1[O-])C(Br)CCC2Br` (stereo not drawn), which AC50 [1] is on record?
Answer: 35.5 µM [rising, single point]

Question: With `COc1ccc(/C=C(\NC(=O)c2cccs2)C(=O)Nc2cccc3ccccc23)cc1OC` as the compound, how does the AC50 [1] read?
Answer: 3.26 µM [rising, full curve, poor fit]

Question: Which AC50 [1] does the source give for `Cc1nc(SCC#N)c2c(C)c(C)sc2n1` here?
Answer: 0.82 µM [rising, full curve, poor fit]

Question: With `COc1cccc(NC(=O)N2CCCc3ccccc32)c1` as the compound, how does the AC50 [1] read?
Answer: 31.6 µM [falling, single point]

Question: With `CCOC(=O)c1sc(N(Cc2ccccc2)C(=O)COC(=O)c2ccc(O)cc2)nc1C` as the compound, how does the AC50 [1] read?
Answer: 23.1 µM [falling, single point]

Question: Which AC50 [1] does the source give for `COc1ccc(CCN(Cc2nc3ccccc3c(=O)[nH]2)C(=O)c2ccco2)cc1OC` here?
Answer: 0.708 µM [rising, full curve, poor fit]

Question: Which AC50 [1] does the source give for `Cc1ccc(Nc2nnc(SC(C)C(=O)NCC3CCCO3)s2)cc1C` (stereo not drawn) here?
Answer: 6.51 µM [rising, partial curve, poor fit]

Question: For `COc1ccc(-c2nc3ccc(C)cn3c2NCc2ccc3c(c2)OCO3)cc1`, which AC50 [1] is on record?
Answer: 35.5 µM [falling, single point]

Question: For `CCc1nc2ccccc2c(C(=O)O)c1C`, which AC50 [1] is on record?
Answer: 9.2 µM [falling, partial curve, poor fit]

Question: Which AC50 [1] does the source give for `COc1cc(OC)c(NC(=S)Nc2cc(Cl)cc(Cl)c2)cc1Cl` here?
Answer: 0.0651 µM [rising, full curve, poor fit]

Question: With `Cn1c(O)c(N=NC(=O)Cn2c(C(F)(F)F)nc3ccccc32)c2ccccc21` as the compound, how does the AC50 [1] read?
Answer: 4.61 µM [rising, single point]

Question: Which AC50 [1] does the source give for `Cc1ccc(CCC(=O)Nc2ccccc2F)s1` here?
Answer: 10 µM [falling, partial curve]
